These are yes or no findings as the source states them, for the method shown. In cells and extracts the contact can be indirect. Some entries that bind do so weakly or less than the wild type.
T1: full length CTCF (pull-down construct) (UniProt P49711)
T1 sequence: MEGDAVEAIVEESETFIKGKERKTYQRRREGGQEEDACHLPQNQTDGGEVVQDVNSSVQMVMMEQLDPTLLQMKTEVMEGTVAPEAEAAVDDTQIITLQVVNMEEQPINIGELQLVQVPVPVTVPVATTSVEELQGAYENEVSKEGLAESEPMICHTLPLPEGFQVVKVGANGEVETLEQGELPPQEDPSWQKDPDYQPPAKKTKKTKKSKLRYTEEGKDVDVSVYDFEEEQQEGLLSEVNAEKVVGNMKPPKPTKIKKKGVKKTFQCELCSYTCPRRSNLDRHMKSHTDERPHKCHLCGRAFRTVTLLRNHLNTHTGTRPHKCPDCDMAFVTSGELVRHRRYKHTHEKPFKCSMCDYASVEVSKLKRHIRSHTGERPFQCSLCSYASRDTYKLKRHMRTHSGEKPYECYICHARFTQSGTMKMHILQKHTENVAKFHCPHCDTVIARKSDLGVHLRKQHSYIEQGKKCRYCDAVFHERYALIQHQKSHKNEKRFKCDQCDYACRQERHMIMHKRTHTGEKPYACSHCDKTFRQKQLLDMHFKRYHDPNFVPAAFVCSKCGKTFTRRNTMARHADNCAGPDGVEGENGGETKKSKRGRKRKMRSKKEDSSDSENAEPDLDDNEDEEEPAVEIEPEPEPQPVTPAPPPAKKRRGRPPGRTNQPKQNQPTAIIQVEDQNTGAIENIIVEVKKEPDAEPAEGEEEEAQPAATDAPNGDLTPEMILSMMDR

Amino acid sequences for entries named in this document (tags omitted).
UniProt Q7TMY8: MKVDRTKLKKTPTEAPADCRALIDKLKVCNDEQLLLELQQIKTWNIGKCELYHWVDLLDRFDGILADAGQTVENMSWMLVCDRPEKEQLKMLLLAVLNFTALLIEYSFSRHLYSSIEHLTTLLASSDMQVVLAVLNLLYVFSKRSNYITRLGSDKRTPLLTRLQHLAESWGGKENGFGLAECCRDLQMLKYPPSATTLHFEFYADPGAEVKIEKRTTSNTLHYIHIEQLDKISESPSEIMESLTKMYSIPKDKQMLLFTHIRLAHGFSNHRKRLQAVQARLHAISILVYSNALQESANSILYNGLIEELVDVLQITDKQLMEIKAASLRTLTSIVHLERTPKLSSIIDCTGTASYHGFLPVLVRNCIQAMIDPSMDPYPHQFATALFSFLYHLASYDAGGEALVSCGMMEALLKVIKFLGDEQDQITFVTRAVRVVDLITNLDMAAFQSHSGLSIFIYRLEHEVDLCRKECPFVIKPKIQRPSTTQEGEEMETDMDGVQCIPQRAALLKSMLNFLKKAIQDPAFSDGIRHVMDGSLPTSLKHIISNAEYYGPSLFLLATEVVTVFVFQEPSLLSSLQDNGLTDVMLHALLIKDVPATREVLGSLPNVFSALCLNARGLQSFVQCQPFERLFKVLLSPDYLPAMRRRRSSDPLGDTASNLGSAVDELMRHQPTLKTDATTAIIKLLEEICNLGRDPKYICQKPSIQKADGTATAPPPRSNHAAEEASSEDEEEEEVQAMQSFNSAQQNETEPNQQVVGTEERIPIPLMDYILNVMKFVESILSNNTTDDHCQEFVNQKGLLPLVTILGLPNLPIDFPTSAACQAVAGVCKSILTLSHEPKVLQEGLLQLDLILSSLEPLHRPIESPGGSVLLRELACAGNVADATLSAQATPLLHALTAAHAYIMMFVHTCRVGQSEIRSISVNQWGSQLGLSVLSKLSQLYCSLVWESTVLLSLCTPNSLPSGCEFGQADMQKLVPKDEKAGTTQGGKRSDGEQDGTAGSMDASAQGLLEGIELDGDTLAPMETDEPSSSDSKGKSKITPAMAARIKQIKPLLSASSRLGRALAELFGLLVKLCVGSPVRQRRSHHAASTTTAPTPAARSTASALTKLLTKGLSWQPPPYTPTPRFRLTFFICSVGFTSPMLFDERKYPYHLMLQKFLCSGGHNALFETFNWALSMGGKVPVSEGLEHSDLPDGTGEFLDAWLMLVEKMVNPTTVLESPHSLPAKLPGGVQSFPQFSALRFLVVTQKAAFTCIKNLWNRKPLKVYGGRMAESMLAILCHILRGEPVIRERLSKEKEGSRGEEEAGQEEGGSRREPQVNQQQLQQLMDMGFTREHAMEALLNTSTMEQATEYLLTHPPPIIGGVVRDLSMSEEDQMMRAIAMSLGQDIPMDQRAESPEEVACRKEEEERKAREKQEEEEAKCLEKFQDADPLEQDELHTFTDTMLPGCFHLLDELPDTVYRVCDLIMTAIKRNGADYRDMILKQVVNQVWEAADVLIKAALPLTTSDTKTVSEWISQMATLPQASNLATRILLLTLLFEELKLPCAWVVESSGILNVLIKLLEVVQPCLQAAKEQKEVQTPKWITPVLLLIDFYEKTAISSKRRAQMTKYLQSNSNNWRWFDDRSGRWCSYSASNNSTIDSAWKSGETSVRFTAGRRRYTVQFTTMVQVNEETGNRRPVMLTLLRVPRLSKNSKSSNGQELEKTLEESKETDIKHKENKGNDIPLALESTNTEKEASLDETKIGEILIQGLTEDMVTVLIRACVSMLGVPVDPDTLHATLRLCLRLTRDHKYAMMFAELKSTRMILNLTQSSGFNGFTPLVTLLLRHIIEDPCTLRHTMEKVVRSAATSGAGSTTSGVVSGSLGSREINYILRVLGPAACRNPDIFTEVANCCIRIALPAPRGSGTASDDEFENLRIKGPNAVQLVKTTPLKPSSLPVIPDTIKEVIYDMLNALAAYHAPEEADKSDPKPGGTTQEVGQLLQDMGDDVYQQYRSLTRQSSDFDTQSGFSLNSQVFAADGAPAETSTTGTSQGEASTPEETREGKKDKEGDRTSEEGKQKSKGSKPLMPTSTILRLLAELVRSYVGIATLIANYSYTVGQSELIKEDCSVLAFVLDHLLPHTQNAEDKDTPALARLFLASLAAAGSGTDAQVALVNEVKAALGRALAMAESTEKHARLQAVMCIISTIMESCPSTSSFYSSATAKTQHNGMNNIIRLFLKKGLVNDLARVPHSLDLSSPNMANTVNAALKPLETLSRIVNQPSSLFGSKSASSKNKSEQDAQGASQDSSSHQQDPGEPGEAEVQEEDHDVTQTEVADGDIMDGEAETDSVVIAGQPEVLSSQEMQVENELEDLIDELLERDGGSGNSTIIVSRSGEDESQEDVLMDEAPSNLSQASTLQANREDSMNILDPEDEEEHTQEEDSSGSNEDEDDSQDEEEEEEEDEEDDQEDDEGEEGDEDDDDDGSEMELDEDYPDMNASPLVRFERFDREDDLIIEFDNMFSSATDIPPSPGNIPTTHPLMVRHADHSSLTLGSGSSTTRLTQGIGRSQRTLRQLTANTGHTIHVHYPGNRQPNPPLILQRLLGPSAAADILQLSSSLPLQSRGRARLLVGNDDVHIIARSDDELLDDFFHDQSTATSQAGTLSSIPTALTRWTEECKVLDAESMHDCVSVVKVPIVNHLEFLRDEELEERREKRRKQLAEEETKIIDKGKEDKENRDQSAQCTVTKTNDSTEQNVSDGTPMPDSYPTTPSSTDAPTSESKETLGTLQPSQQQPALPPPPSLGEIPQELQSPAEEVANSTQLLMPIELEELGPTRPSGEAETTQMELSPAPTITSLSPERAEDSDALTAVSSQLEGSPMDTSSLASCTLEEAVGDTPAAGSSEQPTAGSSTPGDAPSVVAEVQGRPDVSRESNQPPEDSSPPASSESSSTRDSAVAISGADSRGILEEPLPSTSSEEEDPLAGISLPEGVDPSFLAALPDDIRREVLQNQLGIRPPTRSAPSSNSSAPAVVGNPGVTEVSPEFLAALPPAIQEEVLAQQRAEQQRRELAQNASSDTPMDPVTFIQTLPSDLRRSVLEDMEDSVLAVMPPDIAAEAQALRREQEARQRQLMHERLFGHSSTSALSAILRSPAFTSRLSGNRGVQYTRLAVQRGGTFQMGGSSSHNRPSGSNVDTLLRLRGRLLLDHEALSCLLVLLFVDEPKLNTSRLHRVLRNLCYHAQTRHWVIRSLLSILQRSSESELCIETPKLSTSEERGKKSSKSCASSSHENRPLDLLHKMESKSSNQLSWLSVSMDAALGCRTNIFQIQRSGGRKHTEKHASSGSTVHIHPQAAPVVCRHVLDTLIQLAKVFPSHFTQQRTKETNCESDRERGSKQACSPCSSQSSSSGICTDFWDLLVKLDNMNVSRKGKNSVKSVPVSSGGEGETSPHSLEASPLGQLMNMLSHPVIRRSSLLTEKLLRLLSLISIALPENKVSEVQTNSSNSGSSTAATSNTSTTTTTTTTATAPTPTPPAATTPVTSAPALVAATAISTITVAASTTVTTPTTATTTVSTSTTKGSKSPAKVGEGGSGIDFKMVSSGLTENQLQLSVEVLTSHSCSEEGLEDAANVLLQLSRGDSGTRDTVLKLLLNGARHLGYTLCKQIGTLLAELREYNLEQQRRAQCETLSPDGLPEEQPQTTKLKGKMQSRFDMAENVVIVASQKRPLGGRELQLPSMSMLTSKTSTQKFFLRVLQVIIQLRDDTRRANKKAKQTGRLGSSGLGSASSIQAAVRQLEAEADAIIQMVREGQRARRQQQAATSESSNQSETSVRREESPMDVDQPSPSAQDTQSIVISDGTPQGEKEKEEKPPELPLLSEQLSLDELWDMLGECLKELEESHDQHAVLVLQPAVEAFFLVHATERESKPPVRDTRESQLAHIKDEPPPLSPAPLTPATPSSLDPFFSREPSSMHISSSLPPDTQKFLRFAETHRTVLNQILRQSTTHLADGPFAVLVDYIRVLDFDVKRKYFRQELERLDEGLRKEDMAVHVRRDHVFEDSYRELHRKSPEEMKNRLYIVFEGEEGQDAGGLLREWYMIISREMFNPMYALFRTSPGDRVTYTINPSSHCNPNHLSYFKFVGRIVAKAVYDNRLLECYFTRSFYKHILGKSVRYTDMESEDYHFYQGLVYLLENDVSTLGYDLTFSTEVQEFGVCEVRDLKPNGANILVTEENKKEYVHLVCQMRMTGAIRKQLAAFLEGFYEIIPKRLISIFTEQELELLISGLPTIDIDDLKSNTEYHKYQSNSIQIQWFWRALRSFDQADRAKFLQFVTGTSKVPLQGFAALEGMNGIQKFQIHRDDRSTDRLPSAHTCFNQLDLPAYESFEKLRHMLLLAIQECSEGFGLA
UniProt P01108: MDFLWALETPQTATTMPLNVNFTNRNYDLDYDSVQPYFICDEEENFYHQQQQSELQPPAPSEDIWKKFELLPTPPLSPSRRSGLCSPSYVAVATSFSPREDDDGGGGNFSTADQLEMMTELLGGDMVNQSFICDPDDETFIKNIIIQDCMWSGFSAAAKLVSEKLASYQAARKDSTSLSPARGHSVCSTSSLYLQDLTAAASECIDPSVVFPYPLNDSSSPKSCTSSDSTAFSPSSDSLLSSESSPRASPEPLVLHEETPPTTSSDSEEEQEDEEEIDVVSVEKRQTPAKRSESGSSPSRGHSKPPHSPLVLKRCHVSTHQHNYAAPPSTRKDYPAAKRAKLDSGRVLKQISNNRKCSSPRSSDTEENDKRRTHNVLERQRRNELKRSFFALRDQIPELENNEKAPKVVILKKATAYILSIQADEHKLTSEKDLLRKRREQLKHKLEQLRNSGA
UniProt P02340: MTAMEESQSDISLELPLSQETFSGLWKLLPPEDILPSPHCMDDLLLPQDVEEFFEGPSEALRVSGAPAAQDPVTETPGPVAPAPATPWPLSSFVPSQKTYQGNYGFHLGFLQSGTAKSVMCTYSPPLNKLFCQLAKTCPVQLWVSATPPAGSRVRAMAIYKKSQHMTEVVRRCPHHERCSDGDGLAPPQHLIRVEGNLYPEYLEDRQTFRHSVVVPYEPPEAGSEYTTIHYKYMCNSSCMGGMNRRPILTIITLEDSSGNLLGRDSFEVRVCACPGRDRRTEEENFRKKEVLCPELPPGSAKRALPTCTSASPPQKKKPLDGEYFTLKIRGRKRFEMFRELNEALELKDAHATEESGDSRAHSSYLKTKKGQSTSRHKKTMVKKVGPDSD
UniProt P28574: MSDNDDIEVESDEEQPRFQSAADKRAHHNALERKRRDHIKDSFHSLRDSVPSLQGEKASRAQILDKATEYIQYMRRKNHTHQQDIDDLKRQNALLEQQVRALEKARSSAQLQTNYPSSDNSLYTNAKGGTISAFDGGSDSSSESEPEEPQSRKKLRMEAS
UniProt P01106: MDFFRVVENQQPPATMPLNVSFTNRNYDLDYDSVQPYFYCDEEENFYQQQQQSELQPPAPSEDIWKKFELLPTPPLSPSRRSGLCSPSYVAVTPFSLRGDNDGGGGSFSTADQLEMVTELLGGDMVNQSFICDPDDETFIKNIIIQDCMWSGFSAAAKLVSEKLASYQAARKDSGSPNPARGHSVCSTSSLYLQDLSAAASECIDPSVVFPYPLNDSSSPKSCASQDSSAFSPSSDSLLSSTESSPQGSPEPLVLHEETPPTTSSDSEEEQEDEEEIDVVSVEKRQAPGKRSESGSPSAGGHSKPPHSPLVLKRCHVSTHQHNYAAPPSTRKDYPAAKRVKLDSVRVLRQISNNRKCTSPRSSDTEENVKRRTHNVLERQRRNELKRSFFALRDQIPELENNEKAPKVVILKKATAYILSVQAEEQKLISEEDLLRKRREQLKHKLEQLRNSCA


Columns and labels:
[1] = target: T1, full length CTCF (pull-down construct); experiment: pull-down; data not shown; full length CTCF or the central CTCF zinc finger region as bait; source of ARF-BP1 not told
[2] = target: ARF-BP1 (E3 ubiquitin ligase encoded by HUWE1), endogenous in mouse B cell lymphoma cell lines (mouse (endogenous in SBL, DBLL and MZL-derived cell lines)) (UniProt Q7TMY8); experiment: co-IP; lysates of mouse SBL, λ-MYC TG DBLL and MZL-derived cell lines immunoprecipitated with ARF-BP1 antibody on beads; blotted with antibodies to ARF-BP1, ARF, p53, MYC and CTCF; normal IgG as negative control
[3] = target: ARF-BP1, endogenous in P493-6 human B cells (human (endogenous in P493-6)) (UniProt Q7Z6Z7); experiment: co-IP; protein extracts of P493-6 cells with MYC on or off precipitated with antibodies to MAX, blotted with antibodies to ubiquitin or MYC; MYC+ cells also treated with ARF-BP1-specific or control siRNA

| binding [2] | Molecule | other results |
| --- | --- | --- |
| binds | MYC, endogenous in mouse SBL and MZL cell lines (from UniProt P01108 1-454) | – |
| binds | p53, endogenous in mouse B cell lymphoma cell lines (from UniProt P02340 1-390) | – |

Second part, the molecule before the results:

| Molecule | binding [2] | other results |
| --- | --- | --- |
| ARF-BP1 pulled down by CTCF constructs (data not shown) (from UniProt Q7Z6Z7 1-4374) (enzyme) | – | binding [1]: binds |
| MAX in mouse DBLL cells (from UniProt P28574 1-160) | binds | – |
| MYC in P493-6 cells (conditional tetracycline-regulated MYC) (from UniProt P01106 1-454) | – | binding [3]: binds |
| CTCF, endogenous in mouse B cell lymphoma cell lines (protein, UniProt Q61164 1-736) MEGEAVEAIVEESETFIKGKERKTYQRRREGGQEEDACHLPQNQTDGGEVVQDVNSSVQMVMMEQLDPTLLQMKTEVMEGTVAPEAEAAVDDTQIITLQVVNMEEQPINIGELQLVQVPVPVTVPVATTSVEELQGAYENEVSKEGLAESEPMICHTLPLPEGFQVVKVGANGEVETLEQGELPPQEDSSWQKDPDYQPPAKKTKKTKKSKLRYTEEGKDVDVSVYDFEEEQQEGLLSEVNAEKVVGNMKPPKPTKIKKKGVKKTFQCELCSYTCPRRSNLDRHMKSHTDERPHKCHLCGRAFRTVTLLRNHLNTHTGTRPHKCPDCDMAFVTSGELVRHRRYKHTHEKPFKCSMCDYASVEVSKLKRHIRSHTGERPFQCSLCSYASRDTYKLKRHMRTHSGEKPYECYICHARFTQSGTMKMHILQKHTENVAKFHCPHCDTVIARKSDLGVHLRKQHSYIEQGKKCRYCDAVFHERYALIQHQKSHKNEKRFKCDQCDYACRQERHMIMHKRTHTGEKPYACSHCDKTFRQKQLLDMHFKRYHDPNFVPAAFVCSKCGKTFTRRNTMARHADNCAGPDGVEGENGGETKKSKRGRKRKMRSKKEDSSDSEENAEPDLDDNEEEEEPAVEIEPEPEPQPQPPPPPQPVAPAPPPAKKRRGRPPGRTNQPKQNQPTAIIQVEDQNTGAIENIIVEVKKEPDAEPAEGEEEEAQAATTDAPNGDLTPEMILSMMDR | binds | – |
| ARF, endogenous in mouse B cell lymphoma cell lines (protein, UniProt Q64364 1-169) MGRRFLVTVRIQRAGRPLQERVFLVKFVRSRRPRTASCALAFVNMLLRLERILRRGPHRNPGPGDDDGQRSRSSSSAQLRCRFELRGPHYLLPPGARRSAGRLPGHAGGAARVRGSAGCARCLGSPAARLGPRAGTSRHRAIFAFRWVLFVFRWVVFVYRWERRPDRRA | binds | – |
